# Measurements from the supplement of paper PMC8728848.
# This is one part of the list.
# B1: Epa21 (Candida glabrata) (protein)
# chain: MGSSHHHHHHSSGLVPRGSHMASTPNIESHPQGCSPVDTSGIKPGLKMDLYRFPITPPGTGCWSWDWLTVTPDFPRSGYWKWPKIAEVDGVVGPLHLDSGHPTCDPLTSVLPHGFNYLQSITTTNFTMVLHGYFVPKQSGKYTFEFKADDALLLNLGAGNAFSCCDYNNSQYNQGEYLAYAIWSKNNQTATLYLEKGIYYPIRVFYHNRCCGAYMDVVYYFNDSPIPNRDFSGLLFSIPDSDSCDANI
# Legend:
# Assay in all cases: glycan array binding signal (z-score within array); higher = stronger binding
# Details in all cases: glycan notation: IUPAC condensed, linker removed
# [1] = target: Fuc(a1-2)Gal(b1-4)[Fuc(a1-3)]GlcNAc
# How it was run: (§1)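 Glycan array data came from 3228 arrays in the Consortium for Functional Glycomics database, and only arrays with an available protein sequence were kept. Glycan names were put into IUPAC-condensed notation, and columns mapping to the same glycan were averaged. The binding signal is a within-array Z-score, averaged across arrays of one protein sequence run at different concentrations or buffers and across linkers. A negative Z-score can be read as non-binding.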
# [2] = target: Fuc(a1-2)Gal(b1-4)[Fuc(a1-3)]GlcNAc(b1-2)Man(a1-3)[Fuc(a1-2)Gal(b1-4)[Fuc(a1-3)]GlcNAc(b1-2)Man(a1-6)]Man(b1-4)GlcNAc(b1-4)[Fuc(a1-6)]GlcNAc
# How it was run: as §1
# [3] = target: Fuc(a1-2)Gal(b1-4)[Fuc(a1-3)]GlcNAc(b1-2)[Fuc(a1-2)Gal(b1-4)[Fuc(a1-3)]GlcNAc(b1-4)]Man(a1-3)[Fuc(a1-2)Gal(b1-4)[Fuc(a1-3)]GlcNAc(b1-2)Man(a1-6)]Man(b1-4)GlcNAc(b1-4)GlcNAc
# How it was run: as §1
# [4] = target: Fuc(a1-2)Gal(b1-4)[Fuc(a1-3)]GlcNAc(b1-3)Gal(b1-4)[Fuc(a1-3)]GlcNAc
# How it was run: as §1
# [5] = target: Fuc(a1-2)Gal(b1-4)[Fuc(a1-3)]GlcNAc(b1-3)Gal(b1-4)[Fuc(a1-3)]GlcNAc(b1-3)Gal(b1-4)[Fuc(a1-3)]GlcNAc
# How it was run: as §1
# [6] = target: Fuc(a1-2)Gal(b1-4)[Fuc(a1-3)]GlcNAc(b1-3)GalNAc
# How it was run: as §1
# [7] = target: Fuc(a1-2)Gal(b1-4)[Fuc(a1-3)]GlcNAc(b1-3)[Neu5Ac(a2-6)Gal(b1-4)GlcNAc(b1-6)]Gal(b1-4)Glc
# How it was run: as §1
# [8] = target: Fuc(a1-2)Gal3S(b1-4)GlcNAc
# How it was run: as §1
# [9] = target: Fuc(a1-2)Gal6S(b1-3)GlcNAc
# How it was run: as §1
# [10] = target: Fuc(a1-2)Gal6S(b1-3)GlcNAc6S
# How it was run: as §1
# [11] = target: Fuc(a1-2)Gal6S(b1-4)Glc
# How it was run: as §1
# [12] = target: Fuc(a1-2)Gal6S(b1-4)Glc6S
# How it was run: as §1
# [13] = target: Fuc(a1-2)[Gal(a1-3)]Gal
# How it was run: as §1
# [14] = target: Fuc(a1-2)[Gal(a1-3)]Gal(b1-3)GalNAc
# How it was run: as §1
# [15] = target: Fuc(a1-2)[Gal(a1-3)]Gal(b1-3)GalNAc(b1-3)Gal(a1-4)Gal(b1-4)Glc
# How it was run: as §1
# [16] = target: Fuc(a1-2)[Gal(a1-3)]Gal(b1-3)GlcNAc
# How it was run: as §1
# [17] = target: Fuc(a1-2)[Gal(a1-3)]Gal(b1-3)GlcNAc(b1-2)Man(a1-3)[Fuc(a1-2)[Gal(a1-3)]Gal(b1-3)GlcNAc(b1-2)Man(a1-6)]Man(b1-4)GlcNAc(b1-4)GlcNAc
# How it was run: as §1
# [18] = target: Fuc(a1-2)[Gal(a1-3)]Gal(b1-3)GlcNAc(b1-2)Man(a1-3)[Fuc(a1-2)[Gal(a1-3)]Gal(b1-3)GlcNAc(b1-2)Man(a1-6)]Man(b1-4)GlcNAc(b1-4)[Fuc(a1-6)]GlcNAc
# How it was run: as §1
# [19] = target: Fuc(a1-2)[Gal(a1-3)]Gal(b1-3)GlcNAc(b1-3)GalNAc
# How it was run: as §1
# [20] = target: Fuc(a1-2)[Gal(a1-3)]Gal(b1-3)GlcNAc(b1-6)GalNAc
# How it was run: as §1
# [21] = target: Fuc(a1-2)[Gal(a1-3)]Gal(b1-4)Glc
# How it was run: as §1
# [22] = target: Fuc(a1-2)[Gal(a1-3)]Gal(b1-4)GlcNAc
# How it was run: as §1
# [23] = target: Fuc(a1-2)[Gal(a1-3)]Gal(b1-4)GlcNAc(b1-2)Man
# How it was run: as §1
# [24] = target: Fuc(a1-2)[Gal(a1-3)]Gal(b1-4)GlcNAc(b1-2)Man(a1-3)[Fuc(a1-2)[Gal(a1-3)]Gal(b1-4)GlcNAc(b1-2)Man(a1-6)]Man(b1-4)GlcNAc(b1-4)GlcNAc
# How it was run: as §1
# [25] = target: Fuc(a1-2)[Gal(a1-3)]Gal(b1-4)GlcNAc(b1-2)Man(a1-3)[Fuc(a1-2)[Gal(a1-3)]Gal(b1-4)GlcNAc(b1-2)Man(a1-6)]Man(b1-4)GlcNAc(b1-4)[Fuc(a1-6)]GlcNAc
# How it was run: as §1
# [26] = target: Fuc(a1-2)[Gal(a1-3)]Gal(b1-4)GlcNAc(b1-3)GalNAc
# How it was run: as §1
# [27] = target: Fuc(a1-2)[Gal(a1-3)]Gal(b1-4)GlcNAc(b1-3)[Fuc(a1-2)[Gal(a1-3)]Gal(b1-4)GlcNAc(b1-6)]GalNAc
# How it was run: as §1
# [28] = target: Fuc(a1-2)[Gal(a1-3)]Gal(b1-4)GlcNAc(b1-6)GalNAc
# How it was run: as §1
# [29] = target: Fuc(a1-2)[Gal(a1-3)]Gal(b1-4)[Fuc(a1-3)]Glc
# How it was run: as §1
# [30] = target: Fuc(a1-2)[Gal(a1-3)]Gal(b1-4)[Fuc(a1-3)]GlcNAc
# How it was run: as §1
# [31] = target: Fuc(a1-2)[Gal(a1-3)]Gal(b1-4)[Fuc(a1-3)]GlcNAc(b1-3)GalNAc
# How it was run: as §1
# [32] = target: Fuc(a1-2)[Gal(a1-4)]Gal(b1-4)GlcNAc
# How it was run: as §1
# [33] = target: Fuc(a1-2)[GalNAc(a1-3)]Gal
# How it was run: as §1
# [34] = target: Fuc(a1-2)[GalNAc(a1-3)]Gal(b1-3)GalNAc(a1-3)[Fuc(a1-2)]Gal(b1-4)GlcNAc
# How it was run: as §1
# [35] = target: Fuc(a1-2)[GalNAc(a1-3)]Gal(b1-3)GalNAc(b1-3)Gal(a1-4)Gal(b1-4)Glc
# How it was run: as §1
# [36] = target: Fuc(a1-2)[GalNAc(a1-3)]Gal(b1-3)GlcNAc
# How it was run: as §1
# [37] = target: Fuc(a1-2)[GalNAc(a1-3)]Gal(b1-3)GlcNAc(b1-2)Man(a1-3)[Fuc(a1-2)[GalNAc(a1-3)]Gal(b1-3)GlcNAc(b1-2)Man(a1-6)]Man(b1-4)GlcNAc(b1-4)GlcNAc
# How it was run: as §1
# [38] = target: Fuc(a1-2)[GalNAc(a1-3)]Gal(b1-3)GlcNAc(b1-2)Man(a1-3)[Fuc(a1-2)[GalNAc(a1-3)]Gal(b1-3)GlcNAc(b1-2)Man(a1-6)]Man(b1-4)GlcNAc(b1-4)[Fuc(a1-6)]GlcNAc
# How it was run: as §1
binder,measurement,setting,value
B1,glycan array binding signal (z-score),[1],-0.576
same,glycan array binding signal (z-score),[2],0.665
same,glycan array binding signal (z-score),[3],1.68
same,glycan array binding signal (z-score),[4],-1.17
same,glycan array binding signal (z-score),[5],-0.736
same,glycan array binding signal (z-score),[6],1.41
same,glycan array binding signal (z-score),[7],-0.544
same,glycan array binding signal (z-score),[8],-0.281
same,glycan array binding signal (z-score),[9],-0.147
same,glycan array binding signal (z-score),[10],4.29
same,glycan array binding signal (z-score),[11],-0.477
same,glycan array binding signal (z-score),[12],-0.585
same,glycan array binding signal (z-score),[13],-0.505
same,glycan array binding signal (z-score),[14],-0.27
same,glycan array binding signal (z-score),[15],-0.398
same,glycan array binding signal (z-score),[16],-0.094
same,glycan array binding signal (z-score),[17],-0.507
same,glycan array binding signal (z-score),[18],0.177
same,glycan array binding signal (z-score),[19],-0.564
same,glycan array binding signal (z-score),[20],0.169
same,glycan array binding signal (z-score),[21],0.212
same,glycan array binding signal (z-score),[22],-0.541
same,glycan array binding signal (z-score),[23],-0.705
same,glycan array binding signal (z-score),[24],-0.181
same,glycan array binding signal (z-score),[25],-0.518
same,glycan array binding signal (z-score),[26],-0.264
same,glycan array binding signal (z-score),[27],1.16
same,glycan array binding signal (z-score),[28],-0.214
same,glycan array binding signal (z-score),[29],-0.821
same,glycan array binding signal (z-score),[30],0.234
same,glycan array binding signal (z-score),[31],0.814
same,glycan array binding signal (z-score),[32],0.581
same,glycan array binding signal (z-score),[33],-0.529
same,glycan array binding signal (z-score),[34],-0.201
same,glycan array binding signal (z-score),[35],-0.339
same,glycan array binding signal (z-score),[36],0.322
same,glycan array binding signal (z-score),[37],-0.794
same,glycan array binding signal (z-score),[38],-0.396

# For reference, some entries already given:
binder,measurement,setting,value
B1,glycan array binding signal (z-score),[23],-0.705
same,glycan array binding signal (z-score),[24],-0.181
same,glycan array binding signal (z-score),[25],-0.518
same,glycan array binding signal (z-score),[26],-0.264
same,glycan array binding signal (z-score),[27],1.16
same,glycan array binding signal (z-score),[28],-0.214
same,glycan array binding signal (z-score),[29],-0.821
same,glycan array binding signal (z-score),[30],0.234
